From publication PMC10695385
These are yes or no findings as the source states them, for the method shown. Where a sequence is shown, tags or fusion partners need not be part of it.

Target: GFP-SYD-2 SAM(844–1139) (C. elegans) (UniProt Q21049)
Assay: pull-down; 1 ug of each purified GFP construct pre-bound to GFP-trap agarose beads in 20 mM Tris (pH 7.4), 500 mM NaCl, 5 mM beta-mercaptoethanol; select GFP samples pre-phosphorylated by SAD-1; 1 ug of each MBP-conjugated prey incubated 1 h; beads washed sparingly; SDS gel stained with Coomassie; both purified

B1: MBP-SYD-2 IDR(517–843) (domain or fragment, UniProt Q21049 517-843)
chain: QSRMHAIPFTHAQNIVQQQPQASIAQQSAYQMYKQQPAQQYQTVGMRRPNKGRISALQDDPNKVQTLNEQEWDRLQQAHVLANVQQAFSSSPSLADVGQSTLPRPNTAVQHQQDDMMNSGMGMPSGMQGGMQGGMGGGQDAQMLASMLQDRLDAINTEIRLIQQEKHHAERVAEQLERSSREFYDDQGISTRSSPRASPQLDNMRQHKYNTLPANVSGDRRYDIYGNPQFVDDRMVRDLDYEPRRGYNQFDEMQYERDRMSPASSVASSTDGVLGGKKKRSNSSSGLKTLGRFFNKKKNSSSDLFKRNGDYSDGEQSGTEGNQKADY
  binding: no binding (tested: 1 μg of each MBP-conjugated prey protein)
